Laboratory results as given in the supplement of paper PMC6411743.
± gives the standard deviation of the averaged measurements. Only a part is listed here, and it is no random draw.

Amino acid sequences for entries named in this document (tags omitted). A change or cut given only in a name is not applied to a line headed by its entry.
UniProt P20810: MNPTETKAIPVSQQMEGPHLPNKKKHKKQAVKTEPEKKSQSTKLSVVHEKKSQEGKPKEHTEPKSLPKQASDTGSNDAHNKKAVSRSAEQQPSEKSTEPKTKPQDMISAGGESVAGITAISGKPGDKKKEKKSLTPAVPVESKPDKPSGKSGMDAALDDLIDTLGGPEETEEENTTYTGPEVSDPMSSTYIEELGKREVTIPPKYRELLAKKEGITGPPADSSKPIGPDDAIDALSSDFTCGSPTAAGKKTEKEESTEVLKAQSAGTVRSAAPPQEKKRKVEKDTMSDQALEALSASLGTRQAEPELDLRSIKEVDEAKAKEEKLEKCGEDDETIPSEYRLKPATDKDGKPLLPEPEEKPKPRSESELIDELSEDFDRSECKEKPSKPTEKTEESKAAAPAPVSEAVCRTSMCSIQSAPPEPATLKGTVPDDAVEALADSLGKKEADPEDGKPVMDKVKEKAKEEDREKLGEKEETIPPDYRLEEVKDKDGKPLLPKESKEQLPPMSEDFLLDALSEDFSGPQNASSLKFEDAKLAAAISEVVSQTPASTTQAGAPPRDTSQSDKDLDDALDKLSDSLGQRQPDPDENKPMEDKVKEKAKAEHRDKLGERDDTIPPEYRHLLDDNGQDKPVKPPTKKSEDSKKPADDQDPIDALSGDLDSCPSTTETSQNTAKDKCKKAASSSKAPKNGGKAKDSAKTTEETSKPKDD
UniProt Q14978: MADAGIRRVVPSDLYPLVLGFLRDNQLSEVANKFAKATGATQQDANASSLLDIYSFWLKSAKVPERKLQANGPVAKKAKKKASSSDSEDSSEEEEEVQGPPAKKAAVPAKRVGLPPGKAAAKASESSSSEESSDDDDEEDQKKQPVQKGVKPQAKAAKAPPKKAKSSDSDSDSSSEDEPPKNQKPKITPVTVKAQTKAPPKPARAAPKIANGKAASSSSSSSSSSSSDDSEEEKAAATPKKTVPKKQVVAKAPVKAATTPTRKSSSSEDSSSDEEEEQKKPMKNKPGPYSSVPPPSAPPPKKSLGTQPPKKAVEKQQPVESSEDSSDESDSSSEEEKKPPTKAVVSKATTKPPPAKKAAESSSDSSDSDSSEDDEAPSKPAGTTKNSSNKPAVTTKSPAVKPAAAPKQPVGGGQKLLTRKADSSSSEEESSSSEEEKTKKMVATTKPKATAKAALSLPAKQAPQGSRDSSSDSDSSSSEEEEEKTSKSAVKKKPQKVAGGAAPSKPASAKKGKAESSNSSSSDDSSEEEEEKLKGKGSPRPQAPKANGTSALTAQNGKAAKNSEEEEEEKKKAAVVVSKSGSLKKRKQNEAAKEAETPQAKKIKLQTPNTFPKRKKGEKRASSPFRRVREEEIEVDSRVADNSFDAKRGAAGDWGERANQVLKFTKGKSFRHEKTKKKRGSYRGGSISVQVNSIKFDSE
UniProt Q9Y240: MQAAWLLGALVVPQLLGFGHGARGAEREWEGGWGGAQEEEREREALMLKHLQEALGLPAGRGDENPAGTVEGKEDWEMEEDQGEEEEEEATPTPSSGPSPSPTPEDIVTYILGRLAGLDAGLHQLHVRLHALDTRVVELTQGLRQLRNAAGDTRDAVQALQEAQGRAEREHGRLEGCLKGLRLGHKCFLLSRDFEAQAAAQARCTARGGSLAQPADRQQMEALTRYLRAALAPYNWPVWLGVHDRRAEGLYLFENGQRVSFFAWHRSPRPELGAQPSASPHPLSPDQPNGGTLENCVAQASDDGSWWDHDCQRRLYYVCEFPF
UniProt Q9Y4K4: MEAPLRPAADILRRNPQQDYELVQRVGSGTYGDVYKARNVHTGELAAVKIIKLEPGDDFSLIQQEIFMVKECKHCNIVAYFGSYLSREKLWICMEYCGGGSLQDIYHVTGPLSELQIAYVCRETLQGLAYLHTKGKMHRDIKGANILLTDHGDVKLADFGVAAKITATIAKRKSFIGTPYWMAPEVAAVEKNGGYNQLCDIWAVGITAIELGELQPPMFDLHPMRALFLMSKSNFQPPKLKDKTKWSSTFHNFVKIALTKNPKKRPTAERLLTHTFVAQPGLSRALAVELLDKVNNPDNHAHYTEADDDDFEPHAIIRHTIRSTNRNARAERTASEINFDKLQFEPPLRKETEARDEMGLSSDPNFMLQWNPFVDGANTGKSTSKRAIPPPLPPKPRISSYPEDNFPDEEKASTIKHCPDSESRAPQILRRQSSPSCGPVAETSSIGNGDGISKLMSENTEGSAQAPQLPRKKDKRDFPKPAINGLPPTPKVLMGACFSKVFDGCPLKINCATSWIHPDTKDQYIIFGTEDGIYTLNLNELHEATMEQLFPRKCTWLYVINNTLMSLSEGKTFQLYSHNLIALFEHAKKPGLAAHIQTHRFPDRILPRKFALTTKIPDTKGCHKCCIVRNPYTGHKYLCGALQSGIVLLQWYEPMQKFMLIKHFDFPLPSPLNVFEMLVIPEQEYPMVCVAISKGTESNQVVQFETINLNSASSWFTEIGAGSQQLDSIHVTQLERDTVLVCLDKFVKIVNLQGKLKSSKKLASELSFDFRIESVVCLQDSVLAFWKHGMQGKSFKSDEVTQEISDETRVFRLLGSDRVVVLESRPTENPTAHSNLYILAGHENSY
UniProt Q92800, whole entry: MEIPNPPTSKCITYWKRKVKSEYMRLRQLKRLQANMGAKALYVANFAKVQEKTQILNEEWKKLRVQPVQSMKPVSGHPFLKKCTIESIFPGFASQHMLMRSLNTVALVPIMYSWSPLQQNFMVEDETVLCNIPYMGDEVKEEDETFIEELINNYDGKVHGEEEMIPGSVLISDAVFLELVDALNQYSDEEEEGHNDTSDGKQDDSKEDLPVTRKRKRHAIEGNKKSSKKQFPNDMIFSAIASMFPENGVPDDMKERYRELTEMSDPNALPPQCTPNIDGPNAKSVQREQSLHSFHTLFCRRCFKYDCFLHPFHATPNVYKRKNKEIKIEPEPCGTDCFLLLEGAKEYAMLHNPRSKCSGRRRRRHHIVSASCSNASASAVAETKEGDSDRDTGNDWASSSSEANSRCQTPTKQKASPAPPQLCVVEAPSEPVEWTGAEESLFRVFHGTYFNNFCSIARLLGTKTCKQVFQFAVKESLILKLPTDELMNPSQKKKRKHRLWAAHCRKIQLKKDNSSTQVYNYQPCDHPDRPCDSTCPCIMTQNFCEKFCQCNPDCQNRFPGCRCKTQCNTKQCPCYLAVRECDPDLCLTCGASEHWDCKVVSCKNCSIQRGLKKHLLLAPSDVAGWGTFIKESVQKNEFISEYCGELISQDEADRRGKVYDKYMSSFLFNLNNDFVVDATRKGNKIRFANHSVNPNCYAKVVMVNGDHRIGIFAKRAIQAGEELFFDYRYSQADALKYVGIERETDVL
UniProt Q9HCP0: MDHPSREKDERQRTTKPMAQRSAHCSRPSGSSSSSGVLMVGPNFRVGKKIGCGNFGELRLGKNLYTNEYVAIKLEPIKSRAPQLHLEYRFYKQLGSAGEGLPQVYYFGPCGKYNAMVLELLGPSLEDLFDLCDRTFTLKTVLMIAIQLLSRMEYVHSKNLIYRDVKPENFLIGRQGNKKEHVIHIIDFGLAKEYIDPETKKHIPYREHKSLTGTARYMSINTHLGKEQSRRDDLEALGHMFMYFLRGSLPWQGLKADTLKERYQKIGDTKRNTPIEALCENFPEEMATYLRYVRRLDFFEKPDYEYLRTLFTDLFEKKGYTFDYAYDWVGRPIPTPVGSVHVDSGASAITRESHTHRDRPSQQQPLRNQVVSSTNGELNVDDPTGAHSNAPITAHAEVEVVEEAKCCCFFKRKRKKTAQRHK
UniProt Q9H3P2, whole entry: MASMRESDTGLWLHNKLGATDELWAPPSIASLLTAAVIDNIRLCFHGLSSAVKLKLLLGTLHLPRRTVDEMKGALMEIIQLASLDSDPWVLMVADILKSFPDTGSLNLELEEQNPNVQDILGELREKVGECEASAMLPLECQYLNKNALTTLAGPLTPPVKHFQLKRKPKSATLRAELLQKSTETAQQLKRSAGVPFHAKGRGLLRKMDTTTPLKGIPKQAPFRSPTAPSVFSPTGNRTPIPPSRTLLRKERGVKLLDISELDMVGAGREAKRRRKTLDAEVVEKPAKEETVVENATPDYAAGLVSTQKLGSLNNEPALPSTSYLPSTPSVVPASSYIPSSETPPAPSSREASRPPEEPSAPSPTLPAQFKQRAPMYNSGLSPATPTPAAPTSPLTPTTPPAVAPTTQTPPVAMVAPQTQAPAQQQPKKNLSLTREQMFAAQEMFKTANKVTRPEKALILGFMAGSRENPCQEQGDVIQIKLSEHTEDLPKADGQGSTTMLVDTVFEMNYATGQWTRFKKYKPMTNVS
UniProt Q9P1Y6: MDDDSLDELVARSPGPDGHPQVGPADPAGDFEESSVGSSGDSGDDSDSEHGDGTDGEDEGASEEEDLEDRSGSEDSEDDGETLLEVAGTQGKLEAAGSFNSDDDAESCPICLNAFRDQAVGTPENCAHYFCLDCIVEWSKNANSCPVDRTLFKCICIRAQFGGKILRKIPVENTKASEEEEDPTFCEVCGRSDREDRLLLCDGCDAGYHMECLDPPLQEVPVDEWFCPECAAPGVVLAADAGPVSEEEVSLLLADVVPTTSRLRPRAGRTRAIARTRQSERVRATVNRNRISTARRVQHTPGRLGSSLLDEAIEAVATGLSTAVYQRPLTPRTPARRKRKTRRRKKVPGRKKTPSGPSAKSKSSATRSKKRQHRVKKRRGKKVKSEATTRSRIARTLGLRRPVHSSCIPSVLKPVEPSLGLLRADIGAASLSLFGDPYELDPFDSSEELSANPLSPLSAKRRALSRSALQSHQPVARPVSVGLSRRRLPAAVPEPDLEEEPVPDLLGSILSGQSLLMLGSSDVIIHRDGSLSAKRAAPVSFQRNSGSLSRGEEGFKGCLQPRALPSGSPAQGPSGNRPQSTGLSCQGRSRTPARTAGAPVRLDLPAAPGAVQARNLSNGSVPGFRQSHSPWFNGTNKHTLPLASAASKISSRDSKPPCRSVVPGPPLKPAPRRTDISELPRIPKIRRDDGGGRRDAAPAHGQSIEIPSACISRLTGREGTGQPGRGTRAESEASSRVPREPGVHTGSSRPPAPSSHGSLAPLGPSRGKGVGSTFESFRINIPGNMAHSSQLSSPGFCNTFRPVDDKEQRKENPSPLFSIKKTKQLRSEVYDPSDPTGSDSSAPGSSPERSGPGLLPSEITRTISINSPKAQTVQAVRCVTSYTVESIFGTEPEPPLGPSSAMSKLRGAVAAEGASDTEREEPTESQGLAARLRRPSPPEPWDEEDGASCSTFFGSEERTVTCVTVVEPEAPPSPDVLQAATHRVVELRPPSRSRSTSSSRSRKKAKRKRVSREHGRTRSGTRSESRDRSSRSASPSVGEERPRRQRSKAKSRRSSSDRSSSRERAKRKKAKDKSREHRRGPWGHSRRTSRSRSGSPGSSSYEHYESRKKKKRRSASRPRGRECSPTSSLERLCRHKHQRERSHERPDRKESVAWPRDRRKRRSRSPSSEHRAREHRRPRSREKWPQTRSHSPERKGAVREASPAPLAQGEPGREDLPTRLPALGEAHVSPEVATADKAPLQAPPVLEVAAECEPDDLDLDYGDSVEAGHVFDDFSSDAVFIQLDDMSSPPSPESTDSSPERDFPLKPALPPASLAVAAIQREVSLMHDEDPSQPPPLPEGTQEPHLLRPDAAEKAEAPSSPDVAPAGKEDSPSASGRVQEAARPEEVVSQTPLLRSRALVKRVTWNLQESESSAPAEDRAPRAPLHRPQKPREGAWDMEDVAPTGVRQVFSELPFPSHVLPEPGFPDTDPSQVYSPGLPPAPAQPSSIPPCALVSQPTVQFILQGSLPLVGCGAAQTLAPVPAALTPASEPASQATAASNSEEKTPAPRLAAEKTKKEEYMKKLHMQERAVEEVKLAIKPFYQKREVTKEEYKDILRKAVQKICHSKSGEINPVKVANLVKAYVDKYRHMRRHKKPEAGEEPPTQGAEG
UniProt Q8WX92, whole entry: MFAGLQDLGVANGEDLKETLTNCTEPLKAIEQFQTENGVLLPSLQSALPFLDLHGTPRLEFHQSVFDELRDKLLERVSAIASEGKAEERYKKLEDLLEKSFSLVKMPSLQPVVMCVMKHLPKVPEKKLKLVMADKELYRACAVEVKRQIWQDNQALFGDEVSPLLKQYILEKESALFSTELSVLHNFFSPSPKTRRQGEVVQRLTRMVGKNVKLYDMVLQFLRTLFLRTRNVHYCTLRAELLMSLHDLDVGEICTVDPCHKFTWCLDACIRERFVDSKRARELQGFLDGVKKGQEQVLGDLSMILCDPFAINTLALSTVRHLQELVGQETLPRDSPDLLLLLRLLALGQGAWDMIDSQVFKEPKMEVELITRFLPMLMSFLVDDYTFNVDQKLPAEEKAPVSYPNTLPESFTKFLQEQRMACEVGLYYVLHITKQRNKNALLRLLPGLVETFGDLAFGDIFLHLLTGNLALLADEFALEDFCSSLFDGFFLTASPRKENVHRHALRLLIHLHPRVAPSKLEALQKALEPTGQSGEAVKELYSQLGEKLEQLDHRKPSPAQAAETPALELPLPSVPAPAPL

Compound: Nc1ncnc2c1ncn2[C@@H]1O[C@H](COP(=O)(O)OP(=O)(O)NP(=O)(O)O)[C@@H](O)[C@H]1O [adenylyl imidodiphosphate]
Assay: NP40-soluble protein abundance relative to vehicle (solubility fold change) (ratio); higher = more soluble protein in presence of AMP-PNP
Procedure, shortened: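 Each value is a fold change relative to the detergent-processed vehicle, calculated per replicate from vsn-normalised intensities. Jurkat crude lysate received eight concentrations (0.1 to 10 mM) for 10 min at room temperature and 3 min at 37 °C, then was solubilised in 0.8% NP40 with benzonase (60 min, 4 °C). The ultracentrifuged supernatant was TMT-labelled and run by LC-MS/MS in three independent experiments.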

Target	NP40-soluble protein abundance (concentration: 1mM)	NP40-soluble protein abundance (concentration: 2mM)	NP40-soluble protein abundance (concentration: 4mM)	NP40-soluble protein abundance (concentration: 6mM)	NP40-soluble protein abundance (concentration: 8mM)	NP40-soluble protein abundance (concentration: 10mM)
A0A0B4J1V9|Q9NRZ9 and related entries (UniProt Q9NRZ9)	1.01 ± 0.037	0.991 ± 0.027	1.06 ± 0.042	1.08 ± 0.047	1.11 ± 0.063	1.09 ± 0.05
A0A087WWP4|Q96T37 and related entries (UniProt Q96T37)	1.04 ± 0.015	1.08 ± 0.019	1.13 ± 0.02	1.15 ± 0.021	1.17 ± 0.04	1.23 ± 0.033
A0A0A0MTS7|Q8WZ42-12 (UniProt Q8WZ42)	0.981 ± 0.023	0.984 ± 0.022	0.9833 ± 0.0072	0.989 ± 0.03	0.988 ± 0.043	1 ± 0.023
A0A0A0MTC2|D6RA37 and related entries (UniProt Q13454)	0.959 ± 0.035	0.923 ± 0.026	1.01 ± 0.03	1.05 ± 0.08	1.05 ± 0.063	1 ± 0.058
A0A0A6YYL4|P57737-3 (UniProt P57737)	1.01 ± 0.013	0.9994 ± 0.0071	1.02 ± 0.02	0.985 ± 0.011	0.993 ± 0.034	0.9577 ± 0.0086
A0A0C4DGB5|P20810-10|P20810-6 (UniProt P20810)	1.01 ± 0.025	1.07 ± 0.08	1 ± 0.034	1.002 ± 0.0065	0.978 ± 0.03	0.984 ± 0.057
A0A0A0MRM9|Q14978-2|Q14978 and related entries (UniProt Q14978)	1.07 ± 0.025	1.18 ± 0.098	1.12 ± 0.03	1.26 ± 0.051	1.2 ± 0.053	1.29 ± 0.09
A0A0J9YWL0|Q9Y4K1 (UniProt Q9Y4K1)	1.03 ± 0.019	1.03 ± 0.011	1.02 ± 0.026	0.9883 ± 0.0081	0.9876 ± 0.007	0.995 ± 0.012
A0A0A6YY95|Q9Y240 (UniProt Q9Y240)	0.97 ± 0.026	0.972 ± 0.029	1.01 ± 0.043	0.985 ± 0.027	1.018 ± 0.0027	1.04 ± 0.018
A0A0A0MQR1|Q9Y4K4 (UniProt Q9Y4K4)	0.985 ± 0.025	0.993 ± 0.04	1 ± 0.02	0.981 ± 0.024	0.964 ± 0.024	0.97 ± 0.019
A0A0A0MTB0|A0A0J9YYI4|D6RHG7 and related entries (UniProt Q86VE9)	0.9854 ± 0.0076	0.973 ± 0.036	0.977 ± 0.03	0.955 ± 0.032	0.954 ± 0.023	0.949 ± 0.043
A0A096LP75|C4AMC7 and related entries (UniProt Q6VEQ5+C4AMC7)	0.982 ± 0.052	1.12 ± 0.15	1.01 ± 0.064	1 ± 0.049	0.985 ± 0.015	1.03 ± 0.033
A0A0A0MSY9|Q92800 and related entries (UniProt Q92800)	0.978 ± 0.017	0.97 ± 0.022	0.9794 ± 0.0047	0.994 ± 0.016	0.999 ± 0.019	1.001 ± 0.0058
A0A0B4J2A4|K7EME0 and related entries (UniProt P42765)	1.01 ± 0.025	1 ± 0.039	0.989 ± 0.064	0.994 ± 0.029	0.968 ± 0.025	0.979 ± 0.041
A0A0C4DFM7|Q5TAX3 (UniProt Q5TAX3)	1.02 ± 0.034	1.06 ± 0.041	1.04 ± 0.085	0.97 ± 0.035	0.951 ± 0.063	0.967 ± 0.063
A0A0U1RQT7|A0A0U1RQY7|Q8IXA3 and related entries (UniProt Q9HCP0)	1.02 ± 0.039	0.995 ± 0.052	0.999 ± 0.027	1.01 ± 0.033	1.04 ± 0.046	1.01 ± 0.031
A0A0U1RRC9|P57075 and related entries (UniProt P57075)	0.992 ± 0.056	0.957 ± 0.056	1.01 ± 0.034	0.981 ± 0.029	0.996 ± 0.025	0.986 ± 0.024
A0A0A0MRR7|P09234 (UniProt P09234)	0.967 ± 0.04	1.01 ± 0.011	0.966 ± 0.03	1.05 ± 0.058	1.03 ± 0.051	1.09 ± 0.066
A0A0C4DGJ7 (UniProt Q8WUH1)	0.989 ± 0.017	0.965 ± 0.056	0.9939 ± 0.0022	0.9571 ± 0.0027	0.983 ± 0.024	0.9432 ± 0.0042
A0A0G2JH68 (UniProt O60610)	1.01 ± 0.028	1.03 ± 0.018	0.981 ± 0.016	0.979 ± 0.021	0.955 ± 0.015	0.9642 ± 0.0069
A0A0C4DFX9|Q9H3P2 (UniProt Q9H3P2)	1.02 ± 0.017	1.03 ± 0.058	1.01 ± 0.028	1.005 ± 0.002	0.982 ± 0.015	0.98 ± 0.028
A0A0A0MTG1|A0A0G2JIA5|A0A140T8Y0|A0A140TA35|A0A140TA36|A0A140TA40|A0A140TA45|Q5ST30 and related entries (UniProt Q5ST30)	1 ± 0.017	0.992 ± 0.051	0.992 ± 0.02	0.98 ± 0.034	0.979 ± 0.022	0.969 ± 0.04
A0A0J9YWD5|A0A0J9YYB5|B7ZM65 and related entries (UniProt Q9P1Y6)	0.998 ± 0.042	1.06 ± 0.054	1.05 ± 0.035	1.02 ± 0.017	1.02 ± 0.033	1.03 ± 0.05
A0A0X1KG71|Q8WX92 (UniProt Q8WX92)	0.9679 ± 0.0021	0.982 ± 0.028	0.947 ± 0.043	0.997 ± 0.051	0.978 ± 0.02	0.982 ± 0.031
A0A0A6YYD5|A0A0B4J2E0|A0A5A8 and related entries (UniProt P01733+A0A5A8)	0.982 ± 0.023	0.984 ± 0.041	0.98 ± 0.058	0.98 ± 0.033	0.95 ± 0.021	0.971 ± 0.029
A0A0A0MSY7|E5KNQ5 and related entries (UniProt O00142)	0.983 ± 0.057	1.01 ± 0.097	0.988 ± 0.06	0.978 ± 0.013	1 ± 0.011	0.985 ± 0.035
A0A087X0M0|Q7Z5L2 and related entries (UniProt Q7Z5L2)	0.961 ± 0.02	0.961 ± 0.027	0.964 ± 0.02	0.972 ± 0.045	0.969 ± 0.055	0.962 ± 0.03
A0A0B4J220 (UniProt E9PRG8)	1.14 ± 0.051	1.15 ± 0.057	1.2 ± 0.045	1.26 ± 0.1	1.4 ± 0.053	1.39 ± 0.046
A0A087X159|P81877 and related entries (UniProt P81877)	0.994 ± 0.025	0.978 ± 0.029	0.953 ± 0.021	0.976 ± 0.013	0.991 ± 0.017	0.9793 ± 0.003

Taken from above.
NP40-soluble protein abundance (concentration: 10mM) with A0A0B4J220 (UniProt E9PRG8) is entered as 1.39 ± 0.046
NP40-soluble protein abundance (concentration: 8mM) with A0A0A6YY95|Q9Y240 (UniProt Q9Y240) is entered as 1.018 ± 0.0027
